Measurements from US20180064710A1, “ANTIFUNGAL TREATMENT OF PSORIASIS” (Gerbe Labs Inc., priority 2016, published 2018).
At least one compound was matched to its structure with a doubt left.

Tested on: Candida albicans
Assay: Culture sensitivity, Patient 7 fungal isolate
Assay type: cell-based
Settings: Patient 7 culture
Excerpt: The patient underwent the standard workup for CRS, sleep disorder, and nasal obstruction, plus our diagnostic skin test and sinus CT scan.

CCC(C)n1ncn(-c2ccc(N3CCN(c4ccc(OCC5COC(Cn6cncn6)(c6ccc(Cl)cc6Cl)O5)cc4)CC3)cc2)c1=O (stereo not shown) [Itraconazole]
Sensitivity of cultured Candida albicans: sensitive
